Results as given in article PMC8593071.
Results are given in words; binding and its absence hold for the method and conditions named. Binding seen in cells or lysates may run through a third protein. Some binding calls cover weakened binding; strength is not graded here.

The chains behind the UniProt entries cited, without tags or fusion partners.
UniProt Q91XJ1: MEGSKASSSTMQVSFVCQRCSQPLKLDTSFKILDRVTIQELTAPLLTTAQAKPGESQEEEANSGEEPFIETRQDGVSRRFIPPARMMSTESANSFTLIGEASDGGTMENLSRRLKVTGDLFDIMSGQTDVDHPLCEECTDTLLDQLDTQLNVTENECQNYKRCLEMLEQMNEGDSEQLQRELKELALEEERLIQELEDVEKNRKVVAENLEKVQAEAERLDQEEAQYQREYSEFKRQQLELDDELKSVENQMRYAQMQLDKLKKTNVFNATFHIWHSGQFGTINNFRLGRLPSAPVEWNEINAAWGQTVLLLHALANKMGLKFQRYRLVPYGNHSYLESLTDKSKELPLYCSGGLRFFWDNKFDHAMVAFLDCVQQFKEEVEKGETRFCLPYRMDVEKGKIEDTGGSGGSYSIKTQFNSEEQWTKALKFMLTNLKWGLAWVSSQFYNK

Molecular target: Beclin1 (rat (endogenous in primary cortical neurons)) (UniProt Q91XJ1)
Experiment: co-IP; lysates of primary rat cortical neurons, untreated or treated with 1.5 µM Aβ for 16 h (overnight); anti-Beclin1 antibody on protein A agarose, overnight at 4 °C, blot for Puma; reverse IP with Puma antibody, blot for Beclin1

B1: Puma (p53 upregulated modulator of apoptosis) (protein, UniProt Q80ZG6 1-193)
chain: MARARQEGSSPEPVEGLARDSPRPFPLGRLMPSAVSCGLCEPGLPAAPAAPALLPAAYLCAPTAPPAVTAALGGPRWPGGHRSRPRGPRPDGPQPSLSPAQQHLESPVPSAPEALAGGPTQAAPGVRVEEEEWAREIGAQLRRMADDLNAQYERRRQEEQHRHRPSPWRVMYNLFMGLLPLPRDPGAPEMEPN
**Q.** How did the binding turn out when B1 was run?
**A.** The binding was “binds”.
